Measurements reported in patent US20050106258A1, “Pharmacology and manufacturing method of Bombyx moriL related bioproduct” (priority 2003, published 2005).
Counter-ions that a name gives are not always drawn. At least one structure is not confirmed: it was looked up by name or label, or the drawing left a doubt.

Tests used:
nitric oxide (NO) = assay: Nitric oxide contents in the sera of male rats (nitrate reductase method); type: in vivo; conditions: a half and one hour after administration; low dosage p<0.01, high dosage p<0.001
[1] = test system: 5′ Nucleotide Phosphodiesterase isoenzyme (isoenzyme V) in corpus cavernosum tissue; assay: 5′ Nucleotide Phosphodiesterase isoenzyme bands in rat corpus cavernosum tissue after oral dosing (polyacrylamide gel electrophoresis, laser scanning); type: in vivo, rats; conditions: third band in most comparison samples, only 1-2 samples of treated groups; by inference
Protocol: Take 50 healthy male rats with body weight of 230±10.4 g, divide them into five groups at random, with 10 rats each group.
(1) The product mainly consisting of bombyx moriL test drug group: 200mg/kg and 400mg/kg two dose groups
(2) The positive comparison drug viagra group: 6 mg/kg and 12 mg/kg two dose groups
(3) The blank comparison group: normal saline 0.4 ml/per animal
Preparation of drug: After product mainly consisting of bombyx moriL and viagra are dissolved with quanitative normal saline, then use them.
Drug feeding way: Feed medicine to all groups of animal once.
Take corpus cavernosum 10 mg, put into the tissue lapping homogenate container, add 0.05M PH7.4 phosphoric acid buffering agent liquid of 0.2 ml homogenate into the ice bath, and lastly add to 10 ml to prepare homogenate liquid with concentration of 1 mg/n ml. Centrifuge by 20 min. at temperature 4° C., 3000 r/min, then take the supernatant liquid for use.
(1) Take 5′ Nucleotide Phosphodiesterase in the amount enough to dissolve phosphoric acid dieter bond by water, under the effecting of the bottom substance of 5′-[5-iodine indoxyl-(3)] thymidine acid ammonium salt, get iodine sub-indoxyl, it can be oxidized in air and generating violet 5.5′,by using -diuodoindigo principle to examine enzyme activity. […]

## CCCc1nn(C)c2c(=O)[nH]c(-c3cc(S(=O)(=O)N4CCN(C)CC4)ccc3OCC)nc12 [Viagra, Sildenafil citrate]
Nitric oxide (NO)
  NO contents of sera compared with control group: effective for increasing
[1]
  effect on Phosphodiesterase isoenzyme V (third band): suppressing effect
